Here are results for three molecules from publication PMC10149416.

Test [1] has as its target T1, Flag-tagged UTP11 (human) (UniProt Q9Y3A2).
T1 sequence: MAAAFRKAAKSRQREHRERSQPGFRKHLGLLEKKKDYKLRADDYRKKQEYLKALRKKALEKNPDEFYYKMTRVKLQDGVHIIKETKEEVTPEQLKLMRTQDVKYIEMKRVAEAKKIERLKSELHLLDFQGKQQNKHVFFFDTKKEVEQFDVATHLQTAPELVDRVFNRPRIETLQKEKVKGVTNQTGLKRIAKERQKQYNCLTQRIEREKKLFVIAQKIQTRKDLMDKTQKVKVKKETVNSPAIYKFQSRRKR
Description: co-IP; cells transfected with the indicated plasmids (Flag-UTP11, Myc-MPP10); reciprocal co-IP followed by immunoblot. Background: In western blotting, separated proteins are transferred to a membrane and probed.

For test [2], the target named is T2, UTP11 (endogenous) (human (endogenous in HCT116)) (UniProt Q9Y3A2).
T2 sequence: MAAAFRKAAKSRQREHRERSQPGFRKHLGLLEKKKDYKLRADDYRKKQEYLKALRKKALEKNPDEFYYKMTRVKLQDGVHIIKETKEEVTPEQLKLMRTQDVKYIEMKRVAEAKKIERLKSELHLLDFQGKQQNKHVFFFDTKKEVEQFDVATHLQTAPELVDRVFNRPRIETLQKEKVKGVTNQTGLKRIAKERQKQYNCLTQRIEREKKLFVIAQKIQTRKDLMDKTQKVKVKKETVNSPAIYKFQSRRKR
Description: co-IP; endogenous proteins; HCT116 p53+/+ cells treated with MG132 for 6 h; co-IP followed by immunoblot.

Test [3] deals with T3, Myc-tagged MPP10 (human) (UniProt O00566).
T3 sequence: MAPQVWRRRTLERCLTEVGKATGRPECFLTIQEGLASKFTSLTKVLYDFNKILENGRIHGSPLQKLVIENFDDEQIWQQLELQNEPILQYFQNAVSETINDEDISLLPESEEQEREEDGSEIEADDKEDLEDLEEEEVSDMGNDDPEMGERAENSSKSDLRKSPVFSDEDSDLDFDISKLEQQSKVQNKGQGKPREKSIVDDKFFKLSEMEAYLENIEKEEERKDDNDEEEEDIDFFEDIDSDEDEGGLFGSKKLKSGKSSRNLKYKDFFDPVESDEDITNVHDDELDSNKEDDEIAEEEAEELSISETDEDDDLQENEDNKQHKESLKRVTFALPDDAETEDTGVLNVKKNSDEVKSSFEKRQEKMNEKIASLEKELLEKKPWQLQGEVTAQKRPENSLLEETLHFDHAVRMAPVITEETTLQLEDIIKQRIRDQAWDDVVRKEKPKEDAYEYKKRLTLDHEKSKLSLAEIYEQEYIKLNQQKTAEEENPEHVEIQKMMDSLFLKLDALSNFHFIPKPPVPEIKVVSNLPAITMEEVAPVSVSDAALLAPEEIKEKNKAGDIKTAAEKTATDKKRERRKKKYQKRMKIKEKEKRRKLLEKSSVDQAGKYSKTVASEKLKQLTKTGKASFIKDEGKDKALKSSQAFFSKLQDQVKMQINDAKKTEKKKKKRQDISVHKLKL
Description: co-IP; cells transfected with the indicated plasmids (Flag-UTP11, Myc-MPP10); reciprocal co-IP followed by immunoblot.

No constants are given. Whether binding was seen depends on the method and setting. Binding seen in cells or lysates may run through a third protein. Some entries that bind do so weakly or less than the wild type. For part of these data: Tags and fused reporters may be left off the sequences shown.

B1: Myc-tagged MPP10 (protein, UniProt O00566 1-681)
chain: MAPQVWRRRTLERCLTEVGKATGRPECFLTIQEGLASKFTSLTKVLYDFNKILENGRIHGSPLQKLVIENFDDEQIWQQLELQNEPILQYFQNAVSETINDEDISLLPESEEQEREEDGSEIEADDKEDLEDLEEEEVSDMGNDDPEMGERAENSSKSDLRKSPVFSDEDSDLDFDISKLEQQSKVQNKGQGKPREKSIVDDKFFKLSEMEAYLENIEKEEERKDDNDEEEEDIDFFEDIDSDEDEGGLFGSKKLKSGKSSRNLKYKDFFDPVESDEDITNVHDDELDSNKEDDEIAEEEAEELSISETDEDDDLQENEDNKQHKESLKRVTFALPDDAETEDTGVLNVKKNSDEVKSSFEKRQEKMNEKIASLEKELLEKKPWQLQGEVTAQKRPENSLLEETLHFDHAVRMAPVITEETTLQLEDIIKQRIRDQAWDDVVRKEKPKEDAYEYKKRLTLDHEKSKLSLAEIYEQEYIKLNQQKTAEEENPEHVEIQKMMDSLFLKLDALSNFHFIPKPPVPEIKVVSNLPAITMEEVAPVSVSDAALLAPEEIKEKNKAGDIKTAAEKTATDKKRERRKKKYQKRMKIKEKEKRRKLLEKSSVDQAGKYSKTVASEKLKQLTKTGKASFIKDEGKDKALKSSQAFFSKLQDQVKMQINDAKKTEKKKKKRQDISVHKLKL
As to B1, the binding result in test [1] is “binds”.

B2: MPP10 (endogenous) (protein, UniProt O00566 1-681)
chain: MAPQVWRRRTLERCLTEVGKATGRPECFLTIQEGLASKFTSLTKVLYDFNKILENGRIHGSPLQKLVIENFDDEQIWQQLELQNEPILQYFQNAVSETINDEDISLLPESEEQEREEDGSEIEADDKEDLEDLEEEEVSDMGNDDPEMGERAENSSKSDLRKSPVFSDEDSDLDFDISKLEQQSKVQNKGQGKPREKSIVDDKFFKLSEMEAYLENIEKEEERKDDNDEEEEDIDFFEDIDSDEDEGGLFGSKKLKSGKSSRNLKYKDFFDPVESDEDITNVHDDELDSNKEDDEIAEEEAEELSISETDEDDDLQENEDNKQHKESLKRVTFALPDDAETEDTGVLNVKKNSDEVKSSFEKRQEKMNEKIASLEKELLEKKPWQLQGEVTAQKRPENSLLEETLHFDHAVRMAPVITEETTLQLEDIIKQRIRDQAWDDVVRKEKPKEDAYEYKKRLTLDHEKSKLSLAEIYEQEYIKLNQQKTAEEENPEHVEIQKMMDSLFLKLDALSNFHFIPKPPVPEIKVVSNLPAITMEEVAPVSVSDAALLAPEEIKEKNKAGDIKTAAEKTATDKKRERRKKKYQKRMKIKEKEKRRKLLEKSSVDQAGKYSKTVASEKLKQLTKTGKASFIKDEGKDKALKSSQAFFSKLQDQVKMQINDAKKTEKKKKKRQDISVHKLKL
Regarding B2, in test [2], the binding result is reported as “binds”.

B3: Flag-tagged UTP11 (protein, UniProt Q9Y3A2 1-253)
chain: MAAAFRKAAKSRQREHRERSQPGFRKHLGLLEKKKDYKLRADDYRKKQEYLKALRKKALEKNPDEFYYKMTRVKLQDGVHIIKETKEEVTPEQLKLMRTQDVKYIEMKRVAEAKKIERLKSELHLLDFQGKQQNKHVFFFDTKKEVEQFDVATHLQTAPELVDRVFNRPRIETLQKEKVKGVTNQTGLKRIAKERQKQYNCLTQRIEREKKLFVIAQKIQTRKDLMDKTQKVKVKKETVNSPAIYKFQSRRKR
Regarding B3, the binding result in test [3] is reported as “binds”.
